These results are taken from paper PMC5333915.

These are yes or no findings as the source states them, for the method shown. Binding can be weak; no strength is given. Sequences can lack the tags named with a protein. For part of these data: Binding seen in cells or lysates may run through a third protein.

The target in test [1] is T1, Suppressor of Gene Silencing 3 from Nicotiana benthamiana (NbSGS3), BiFC fusion (Nicotiana benthamiana) (UniProt X4YFK1).
T1 sequence: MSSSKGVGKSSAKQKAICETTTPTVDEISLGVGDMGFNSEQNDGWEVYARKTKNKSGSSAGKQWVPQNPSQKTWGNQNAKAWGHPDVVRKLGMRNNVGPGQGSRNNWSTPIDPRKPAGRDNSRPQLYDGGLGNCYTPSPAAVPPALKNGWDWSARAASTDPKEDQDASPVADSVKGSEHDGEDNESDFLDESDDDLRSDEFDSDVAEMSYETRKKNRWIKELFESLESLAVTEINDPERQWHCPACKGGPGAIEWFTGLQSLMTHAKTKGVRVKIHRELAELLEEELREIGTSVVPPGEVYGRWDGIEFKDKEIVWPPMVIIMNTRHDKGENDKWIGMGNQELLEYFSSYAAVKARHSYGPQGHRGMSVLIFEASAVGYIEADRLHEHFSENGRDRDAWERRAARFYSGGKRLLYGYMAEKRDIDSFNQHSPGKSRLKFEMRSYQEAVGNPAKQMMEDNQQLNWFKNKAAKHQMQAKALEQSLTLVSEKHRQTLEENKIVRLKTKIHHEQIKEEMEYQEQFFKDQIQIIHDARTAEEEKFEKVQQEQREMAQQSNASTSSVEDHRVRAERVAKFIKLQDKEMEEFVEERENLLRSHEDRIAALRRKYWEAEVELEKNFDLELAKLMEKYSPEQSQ
Briefly: split reporter; BiFC with 2YN and 2YC fragments of YFP, agroinfiltrated leaves of H2B-RFP transgenic N. benthamiana, confocal microscopy at 48 hpi.

The target in test [2] is T2, Suppressor of Gene Silencing 3 from Nicotiana benthamiana (NbSGS3), GAL4 two-hybrid fusion (Nicotiana benthamiana) (UniProt X4YFK1).
T2 sequence: T1 sequence
Briefly: two-hybrid; GAL4 system (pGADT7 AD, pGBKT7 BD) in yeast; reporter genes HIS3 and ADE2; growth on SD/Leu-Trp-His selection plates with 5 mM 3-AT; serial 10-fold dilutions.

As to “RNA-dependent RNA polymerase 6 from Nicotiana benthamiana (NbRDR6), BiFC fusion”, the binding result in test [1] was “binds”.
As for “RNA-dependent RNA polymerase 6 from Nicotiana benthamiana (NbRDR6), GAL4 two-hybrid fusion (from UniProt Q647I5)”, the binding entry in test [2] is on record as “binds”.
In the case of “calmodulin-like protein from Nicotiana benthamiana (NbCaM), BiFC fusion”, the binding result in test [1] is “binds”.
